Measured data: PubChem BioAssay AID1259254 (NCATS, 2017)
Aim: 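Finding genes that stop cells copying their DNA twice in one cycle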 (primary screen). Cells: human HCT116 colorectal cancer cells. Knock-down reagent: single siRNA against human genes. Timing: 3 days. Read-out: 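Nuclei stained with Hoechst and imaged; cell-cycle phase assigned by DNA content; G2 share scaled per plate, non-targeting siRNA 0%, GMNN siRNA 100%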. Direction: G2 robust z-score: higher = more G2 cells, more excess DNA replication. Call rule: 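An siRNA counts as active if its G2 robust z-score lies at least 5 MADs above the screen median; here such calls match roughly 38% of GMNN control or more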.
In all, the deposit lists about 59,000 reagents; this is an unselected part. In the full data, about 1,550 (2.6%) got an active call. 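G2 share is only a proxy for re-replication; each gene was hit by three separate siRNAs, and active genes were retested.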 Entries without a mark were called inactive. The numbers tell different reagents against one gene apart. Not all columns of the deposit are shown. The record does not give: the amount of reagent.

target gene | reagent | G2 robust z-score
ARHGAP11A | 1 | 3.78
ARHGAP11A | 2 | 0.107
ARHGAP11A | 3 | 1.92
SLCO2A1 | 1 | 2.27
SLCO2A1 | 2 | -0.651
SLCO2A1 | 3 | 0.554
GUCY2F | 1 | -0.458
GUCY2F | 2 | 4.15
GUCY2F | 3 | -0.514
MCM10 | 1 | 4.19
MCM10 | 2 | 3.7
MCM10 | 3 | 1.54
HSPA6 | 1 | 0.113
HSPA6 | 2 | -0.0567
HSPA6 | 3 | -0.224
RESF1 | 1 | -0.224
RESF1 | 2 | 2.02
RESF1 | 3 | -0.606

Laid out differently: 3 of the entries above.
HSPA6 #2: G2 robust z-score = -0.0567
HSPA6 #3: G2 robust z-score = -0.224
RESF1 #1: G2 robust z-score = -0.224

The list goes on.
target gene | reagent | G2 robust z-score
CETN2 | 1 | 0.806
CETN2 | 2 | 0.308
CETN2 | 3 | -0.682
LAMP2 | 1 | 0.33
LAMP2 | 2 | 1.25
LAMP2 | 3 | -0.892
NBEAL2 | 1 | 0.506
NBEAL2 | 2 | 0.468
NBEAL2 | 3 | -0.167
ZNF592 | 1 | -0.5
ZNF592 | 2 | 0.561
ZNF592 | 3 | -0.423
